# Screening data

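293T-iDUX4 cells carrying a ZSCAN4-driven Gaussia luciferase and a tet-on Italica luciferase control; the gap between the two luminescence signals is read after 24 h. The test concentration is not given here. Percent difference between the Gaussia and Italica channels; more negative values mean more selective suppression of the DUX4 reporter, and higher values mean less activity.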

Values are in %. How 0% and 100% were set is not given here. Common to all entries: measured here: selective DUX4 reporter inhibition. This is a side read-out of the assay, for part of the compounds, not drawn at random.

COc1ccccc1S(=O)(=O)N1CC[C@@H]2[C@@H](CO)Nc3ccc(-c4ccc(C#N)cc4)cc3[C@@H]21 gave Gaussia minus Italica difference -11.74%. For Cc1ccc(-c2ccccc2[C@H]2[C@@H](C#N)N(c3ncc(-c4ccccc4)s3)[C@@H]2CO)cc1 the result was Gaussia minus Italica difference 17.64%. With COc1ccc2c3c(n(C)c2c1)[C@@H](CO)N(C(=O)c1ccccc1)CC31CCN(C(=O)c2ccccc2)CC1 the assay gave Gaussia minus Italica difference -13.41%. Result for N#Cc1ccc(-c2ccc3c(c2)[C@@H]2[C@@H](CCN2S(=O)(=O)c2ccccc2F)[C@H](CO)N3)cc1 was Gaussia minus Italica difference -15.22%. For N#C[C@@H]1[C@H](c2ccccc2C2=CCCC2)[C@@H](CO)N1S(=O)(=O)c1ccccc1 the result was Gaussia minus Italica difference -4.69%. With COc1ccc2c3c([nH]c2c1)[C@H](CO)N(S(=O)(=O)c1cn(C)cn1)CC31CCN(Cc2ccccc2)CC1 the assay gave Gaussia minus Italica difference 20.74%. C[C@H](CO)N1C[C@H](C)[C@H](CN(C)Cc2cccc(C(F)(F)F)c2)OCc2ccccc2-c2ccccc2C1=O gave Gaussia minus Italica difference -16.09%. N#Cc1cccc(-c2ccc(C3[C@@H]4CN(S(=O)(=O)c5cccc(Cl)c5)C[C@H]3N4)cc2)c1 (stereo not given in full) gave Gaussia minus Italica difference -20.9%.

With Cc1ccccc1S(=O)(=O)N1CC(=O)N2[C@@H](CO)[C@@H](c3ccc(C#CCC4CCCC4)cc3)[C@@H]2C1 the assay gave Gaussia minus Italica difference -9.372%. N#Cc1cccc(-c2ccc([C@@H]3[C@@H](CO)N4CCCCN(C(=O)Nc5cccc(F)c5)C[C@H]34)cc2)c1 read Gaussia minus Italica difference 1.561%. COc1ccc(C#Cc2ccc([C@H]3[C@H]4CN(C(=O)c5ccncc5)CCCCN4[C@H]3CO)cc2)cc1 read Gaussia minus Italica difference -19.81%. With COc1ccc(-c2ccc(C3[C@@H]4CN(Cc5ccccn5)C[C@H]3N4)cc2)cc1 (stereo not given in full) the assay gave Gaussia minus Italica difference -21.04%. For C[C@@H]1CN([C@@H](C)CO)C(=O)c2ccccc2-c2ccccc2CO[C@@H]1CN(C)S(=O)(=O)c1ccc(F)cc1 the result was Gaussia minus Italica difference -15.71%. With COc1ccccc1-c1cccc(-c2nc(C(=O)N3CCCCC3)cc3c2[C@H](CCO)N([S@@](=O)C(C)(C)C)C3)c1 the assay gave Gaussia minus Italica difference 6.845%. COc1ccc(C#Cc2ccc([C@@H]3[C@H]4CN(C(=O)Nc5ccccc5F)CC(=O)N4[C@H]3CO)cc2)cc1 read Gaussia minus Italica difference 29.76%. COc1cccc(-c2ccc3c(c2)[C@@H]2[C@@H](CCN2C(=O)c2ccc(F)cc2)[C@H](CO)N3)c1 gave Gaussia minus Italica difference 22.38%.

Result for O=C(Nc1ccc(F)cc1)N1CCCCN2[C@@H](CO)[C@@H](c3ccc(C#CC4CC4)cc3)[C@@H]2C1 was Gaussia minus Italica difference 9.524%. Result for CN1CCN(C(=O)[C@@H]2[C@@H](CO)[C@@H]3Cn4c(ccc(C5=CCCC5)c4=O)[C@H]2N3S(C)(=O)=O)CC1 was Gaussia minus Italica difference -22.71%. For COc1ccc(NC(=O)N2CCC3(CC2)CN(CC2CC2)[C@@H](CO)c2c3c3ccc(OC)cc3n2C)cc1 the result was Gaussia minus Italica difference -18.43%. Result for N#Cc1ccc(-c2ccc3c(c2)[C@H]2[C@H](CCN2C(=O)Cc2ccccc2)[C@@H](CO)N3)cc1 was Gaussia minus Italica difference -4.732%. N#C[C@H]1[C@@H](c2ccccc2-c2cccc(F)c2)[C@@H](CO)N1C(=O)NC1CCCCC1 read Gaussia minus Italica difference 3.21%.

Some entries from above, unchanged:

With COc1ccc(C#Cc2ccc([C@H]3[C@H]4CN(C(=O)c5ccncc5)CCCCN4[C@H]3CO)cc2)cc1 the assay gave Gaussia minus Italica difference -19.81%.
With COc1ccccc1-c1cccc(-c2nc(C(=O)N3CCCCC3)cc3c2[C@H](CCO)N([S@@](=O)C(C)(C)C)C3)c1 the assay gave Gaussia minus Italica difference 6.845%.
With N#Cc1ccc(-c2ccc3c(c2)[C@@H]2[C@@H](CCN2S(=O)(=O)c2ccccc2F)[C@H](CO)N3)cc1 the assay gave Gaussia minus Italica difference -15.22%.

Source: PubChem BioAssay AID1224904 (Broad Institute, 2016).